Structures can show the parent of a compound that is named as a salt. This is one part of the list. Single values are uncertain here, since repeats match poorly.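 Human U-2 OS cells stably expressing a GFP sensor with a nuclear import signal and classical export signal were transfected to produce PR50, a 50-repeat proline–arginine dipeptide from ALS/FTD gene C9ORF72. Nuclear-minus-cytoplasm GFP was scaled from DMSO (low) to PR-only (high), scored against plate test wells; strongly negative scores marked PR-reversing hits.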
test system: U-2 OS NCT-C biosensor cells expressing PR50; assay: Z-score of normalised NCT-C biosensor translocation index in PR50-expressing cells; higher = more nuclear biosensor (more disrupted nuclear export); conditions: 3 µM; 24 h

| SMILES | Z-score |
| --- | --- |
| Nc1nc(OCc2ccccc2)c2nc[nH]c2n1 [O6-benzylguanine] | inactive: 2.63 |
| NC1C=CC=C(C(=O)O)C1 (stereo not drawn) [Gabaculine hydrochloride] | inactive: 0.558 |
| CC(C)(Sc1ccc(CCN(CCCCC2CCCCC2)C(=O)NC2CCCCC2)cc1)C(=O)O | inactive: 0.186 |
| CSc1ccc2c(c1)N(CCC1CCCCN1C)c1ccccc1S2 (stereo not drawn) [Thioridazine hydrochloride] | inactive: -0.238 |
| CSc1ccc2c(c1)N(CCC1CCCCN1C)c1ccccc1S2 (stereo not drawn) [Thioridazine·HCl] | inactive: 0.58 |
| CC(C)(N)C(=O)N[C@H](COCc1ccccc1)C(=O)N1CCC2(CC1)CN(S(C)(=O)=O)c1ccccc12 | inactive: -0.85 |
| O=c1cc(-c2ccc(O)cc2)oc2c([C@@H]3O[C@H](CO)[C@@H](O)[C@H](O)[C@H]3O)c(O)cc(O)c12 [Vitexin] | inactive: 0.217 |
| CC[N+](CC)(CC)CC(=O)Nc1c(C)cccc1C [Lidocaine N-ethyl bromide] | inactive: 0.175 |
| COc1cc(NC(C)CCCN)c2ncccc2c1 (stereo not drawn) [Primaquine diphosphate] | inactive: -0.102 |
| CC(=O)OC[C@@]1(O)C[C@@]23CC[C@@H]4c5ccoc5C=C[C@@]4(C)[C@@H]2CC[C@@H]1C3 [Kahweol Acetate] | inactive: -0.5 |
| Cc1ccc(S(=O)(=O)NC(=O)NN2CCCCCC2)cc1 [Tolazamide] | inactive: -0.435 |
| Cn1cccc1/C=C1\C(=O)NC(=O)c2ccccc21 | inactive: -1.05 |
| C[C@]12CC[C@@H]3c4ccc(OS(=O)(=O)O)cc4CC[C@H]3[C@@H]1CCC2=O [Estropipate] | inactive: 0.416 |
| C=CCn1c(=O)c2c(nc(-c3ccc(S(=O)(=O)O)cc3)n2C)n(C)c1=O [1-Allyl-3,7- dimethyl-8-p- sulfophenyl xanthine] | inactive: 1.15 |
| C[C@H]1[C@H](C)CC[C@]2(C(=O)O)CC[C@]3(C)C(=CC[C@@H]4[C@@]5(C)C[C@@H](O)[C@H](O)[C@@](C)(CO)[C@@H]5CC[C@]43C)[C@H]12 [Asiatic acid] | inactive: -0.977 |
| CN(Cc1cnc2nc(N)nc(N)c2n1)c1ccc(C(=O)N[C@@H](CCC(=O)O)C(=O)O)cc1 [Methotrexate] | inactive: -0.516 |
| Nc1nc(NC2CC2)c2ncn([C@H]3C=C[C@@H](CO)C3)c2n1 [Abacavir Sulfate] | inactive: 0.832 |
| CC(C)C[C@H](C(=O)O)c1cc(-c2ccc(C(F)(F)F)cc2)cc(-c2ccc(C(F)(F)F)cc2)c1 | inactive: -0.0335 |

— the supplement of paper PMC8616043
